Reference: the supplement of paper PMC12823440, “Inhibitors supercharge kinase turnover through native proteolytic circuits” (Nature, 2025)
The other results are listed elsewhere or left out. The calls rarely recur for the same compound in another form.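 In K562 cells expressing nanoluciferase-fused kinases, luminescence was recorded at 4 h intervals between 2 and 18 h, normalized as percent of control with DMSO at 100% and a positive control at 0%. A significant (2 sigma) signal drop marks a time point as decreased. The authors' rule for a hit is not shown and takes in more than the number of time points.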

Amino acid sequences for entries named in this document (tags omitted). A change or cut given only in a name is not applied to a line headed by its entry.
UniProt O75460: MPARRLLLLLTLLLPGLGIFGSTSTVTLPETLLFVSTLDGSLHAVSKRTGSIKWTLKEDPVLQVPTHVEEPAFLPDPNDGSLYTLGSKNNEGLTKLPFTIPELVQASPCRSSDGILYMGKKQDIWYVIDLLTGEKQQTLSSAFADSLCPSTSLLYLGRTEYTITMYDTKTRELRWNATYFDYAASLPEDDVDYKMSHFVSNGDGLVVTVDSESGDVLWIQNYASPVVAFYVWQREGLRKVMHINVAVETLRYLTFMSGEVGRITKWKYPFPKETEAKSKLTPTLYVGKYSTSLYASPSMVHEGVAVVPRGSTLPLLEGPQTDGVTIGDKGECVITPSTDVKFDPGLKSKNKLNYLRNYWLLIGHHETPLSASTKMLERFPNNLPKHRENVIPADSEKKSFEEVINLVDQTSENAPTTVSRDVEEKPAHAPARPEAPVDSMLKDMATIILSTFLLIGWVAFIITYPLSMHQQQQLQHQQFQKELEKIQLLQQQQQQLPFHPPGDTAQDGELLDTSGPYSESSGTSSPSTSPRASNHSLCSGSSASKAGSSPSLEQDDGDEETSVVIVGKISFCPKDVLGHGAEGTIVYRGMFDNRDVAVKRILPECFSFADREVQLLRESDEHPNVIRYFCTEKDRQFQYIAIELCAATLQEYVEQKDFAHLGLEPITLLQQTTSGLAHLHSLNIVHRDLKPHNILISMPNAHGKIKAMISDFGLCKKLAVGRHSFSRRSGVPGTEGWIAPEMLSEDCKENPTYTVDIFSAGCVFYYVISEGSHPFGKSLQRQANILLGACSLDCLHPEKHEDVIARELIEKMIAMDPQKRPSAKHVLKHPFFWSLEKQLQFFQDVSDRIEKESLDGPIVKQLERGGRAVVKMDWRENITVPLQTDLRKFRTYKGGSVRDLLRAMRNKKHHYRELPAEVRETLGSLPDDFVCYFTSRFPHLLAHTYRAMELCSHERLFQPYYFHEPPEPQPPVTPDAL
UniProt P11362, whole entry, looked up: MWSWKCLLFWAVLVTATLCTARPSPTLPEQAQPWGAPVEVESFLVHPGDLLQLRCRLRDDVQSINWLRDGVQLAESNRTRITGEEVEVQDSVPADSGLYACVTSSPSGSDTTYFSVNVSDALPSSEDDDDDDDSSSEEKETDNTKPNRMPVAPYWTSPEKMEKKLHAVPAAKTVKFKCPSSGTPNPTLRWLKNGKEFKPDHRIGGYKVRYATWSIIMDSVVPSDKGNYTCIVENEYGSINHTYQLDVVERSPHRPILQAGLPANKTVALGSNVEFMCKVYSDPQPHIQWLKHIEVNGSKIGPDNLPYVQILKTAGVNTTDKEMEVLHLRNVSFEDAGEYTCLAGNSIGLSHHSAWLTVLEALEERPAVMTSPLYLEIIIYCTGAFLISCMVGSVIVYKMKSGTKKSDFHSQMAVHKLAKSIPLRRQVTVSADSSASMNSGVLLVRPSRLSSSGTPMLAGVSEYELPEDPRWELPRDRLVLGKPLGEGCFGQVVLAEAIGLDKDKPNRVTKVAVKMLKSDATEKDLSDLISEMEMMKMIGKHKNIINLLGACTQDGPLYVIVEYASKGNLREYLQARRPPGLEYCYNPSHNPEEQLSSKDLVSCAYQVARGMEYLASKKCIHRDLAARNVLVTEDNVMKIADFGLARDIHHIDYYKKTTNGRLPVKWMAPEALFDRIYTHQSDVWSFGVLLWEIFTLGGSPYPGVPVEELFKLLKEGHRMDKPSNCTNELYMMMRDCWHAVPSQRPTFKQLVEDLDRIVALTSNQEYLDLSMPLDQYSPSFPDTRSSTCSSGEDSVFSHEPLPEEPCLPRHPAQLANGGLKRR
UniProt P22607, whole entry, looked up: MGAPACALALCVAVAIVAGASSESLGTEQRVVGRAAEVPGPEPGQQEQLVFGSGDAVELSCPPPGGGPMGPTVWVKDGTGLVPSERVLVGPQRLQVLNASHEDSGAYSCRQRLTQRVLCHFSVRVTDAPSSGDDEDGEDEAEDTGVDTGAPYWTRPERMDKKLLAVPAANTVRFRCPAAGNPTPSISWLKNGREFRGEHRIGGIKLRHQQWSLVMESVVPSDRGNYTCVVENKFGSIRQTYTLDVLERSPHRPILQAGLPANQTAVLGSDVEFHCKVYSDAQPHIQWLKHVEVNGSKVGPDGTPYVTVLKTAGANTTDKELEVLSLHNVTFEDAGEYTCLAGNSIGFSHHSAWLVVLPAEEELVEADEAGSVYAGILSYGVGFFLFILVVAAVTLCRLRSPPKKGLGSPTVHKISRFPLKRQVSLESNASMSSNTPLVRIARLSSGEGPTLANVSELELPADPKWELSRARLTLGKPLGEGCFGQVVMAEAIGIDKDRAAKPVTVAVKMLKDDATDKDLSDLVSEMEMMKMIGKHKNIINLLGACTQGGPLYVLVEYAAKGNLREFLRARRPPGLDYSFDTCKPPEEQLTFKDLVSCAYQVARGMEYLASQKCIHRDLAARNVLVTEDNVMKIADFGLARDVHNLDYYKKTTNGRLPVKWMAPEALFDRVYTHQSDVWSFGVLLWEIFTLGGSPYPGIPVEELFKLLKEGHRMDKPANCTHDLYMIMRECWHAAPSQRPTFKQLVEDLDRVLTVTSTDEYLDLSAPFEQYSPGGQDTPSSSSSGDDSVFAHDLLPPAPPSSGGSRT
UniProt P36888, whole entry: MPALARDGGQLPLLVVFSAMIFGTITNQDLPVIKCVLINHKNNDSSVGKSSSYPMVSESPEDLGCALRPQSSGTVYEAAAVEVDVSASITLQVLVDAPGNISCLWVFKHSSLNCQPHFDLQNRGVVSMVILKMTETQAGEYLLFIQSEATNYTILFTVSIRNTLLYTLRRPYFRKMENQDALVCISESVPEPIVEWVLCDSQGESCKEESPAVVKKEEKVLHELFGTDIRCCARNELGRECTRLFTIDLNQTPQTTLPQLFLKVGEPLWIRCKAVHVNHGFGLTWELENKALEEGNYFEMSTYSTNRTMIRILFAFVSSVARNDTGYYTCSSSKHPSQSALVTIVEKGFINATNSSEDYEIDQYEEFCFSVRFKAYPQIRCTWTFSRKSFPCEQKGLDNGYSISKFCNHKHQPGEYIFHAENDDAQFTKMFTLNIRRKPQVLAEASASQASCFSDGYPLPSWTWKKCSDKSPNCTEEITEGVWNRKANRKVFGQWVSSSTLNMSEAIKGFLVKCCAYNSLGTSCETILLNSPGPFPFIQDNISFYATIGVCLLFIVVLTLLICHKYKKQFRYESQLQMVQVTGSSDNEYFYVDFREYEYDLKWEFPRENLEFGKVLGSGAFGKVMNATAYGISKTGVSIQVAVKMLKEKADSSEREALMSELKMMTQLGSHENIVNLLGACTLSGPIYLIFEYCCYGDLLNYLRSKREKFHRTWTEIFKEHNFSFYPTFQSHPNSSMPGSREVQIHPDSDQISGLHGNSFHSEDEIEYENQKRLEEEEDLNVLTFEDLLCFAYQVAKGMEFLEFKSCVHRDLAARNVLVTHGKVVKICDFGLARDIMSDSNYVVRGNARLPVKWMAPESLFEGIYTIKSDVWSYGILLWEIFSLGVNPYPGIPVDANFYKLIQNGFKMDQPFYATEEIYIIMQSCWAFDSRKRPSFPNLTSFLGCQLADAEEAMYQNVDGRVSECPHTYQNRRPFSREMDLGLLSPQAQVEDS
UniProt P06241, whole entry, looked up: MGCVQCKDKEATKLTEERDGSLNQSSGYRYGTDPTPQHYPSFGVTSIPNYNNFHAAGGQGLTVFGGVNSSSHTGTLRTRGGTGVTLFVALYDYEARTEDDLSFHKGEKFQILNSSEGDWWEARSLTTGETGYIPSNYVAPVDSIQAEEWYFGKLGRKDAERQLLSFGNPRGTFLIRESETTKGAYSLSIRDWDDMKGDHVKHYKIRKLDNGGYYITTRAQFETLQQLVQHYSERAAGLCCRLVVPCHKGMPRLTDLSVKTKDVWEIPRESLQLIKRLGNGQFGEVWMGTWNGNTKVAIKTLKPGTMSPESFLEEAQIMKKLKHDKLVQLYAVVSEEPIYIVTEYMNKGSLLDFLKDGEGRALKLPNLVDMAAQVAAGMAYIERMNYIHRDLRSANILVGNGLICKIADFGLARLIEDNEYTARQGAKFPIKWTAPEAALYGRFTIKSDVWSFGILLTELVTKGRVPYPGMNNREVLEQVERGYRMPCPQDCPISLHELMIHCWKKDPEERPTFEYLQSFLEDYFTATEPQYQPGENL
UniProt P49840: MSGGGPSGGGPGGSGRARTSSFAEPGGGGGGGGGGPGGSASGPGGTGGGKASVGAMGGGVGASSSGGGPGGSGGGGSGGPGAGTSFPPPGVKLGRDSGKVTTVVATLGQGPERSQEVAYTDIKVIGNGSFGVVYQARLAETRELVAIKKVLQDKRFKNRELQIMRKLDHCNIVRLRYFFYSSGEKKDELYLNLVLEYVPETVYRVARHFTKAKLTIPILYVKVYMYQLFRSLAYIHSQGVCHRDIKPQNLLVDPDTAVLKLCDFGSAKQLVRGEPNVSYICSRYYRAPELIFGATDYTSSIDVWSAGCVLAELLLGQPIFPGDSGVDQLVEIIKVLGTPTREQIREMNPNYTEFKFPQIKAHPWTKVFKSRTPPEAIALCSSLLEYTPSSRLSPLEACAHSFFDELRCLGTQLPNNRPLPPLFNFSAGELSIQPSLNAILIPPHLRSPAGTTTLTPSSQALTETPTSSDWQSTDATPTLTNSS
UniProt P14616: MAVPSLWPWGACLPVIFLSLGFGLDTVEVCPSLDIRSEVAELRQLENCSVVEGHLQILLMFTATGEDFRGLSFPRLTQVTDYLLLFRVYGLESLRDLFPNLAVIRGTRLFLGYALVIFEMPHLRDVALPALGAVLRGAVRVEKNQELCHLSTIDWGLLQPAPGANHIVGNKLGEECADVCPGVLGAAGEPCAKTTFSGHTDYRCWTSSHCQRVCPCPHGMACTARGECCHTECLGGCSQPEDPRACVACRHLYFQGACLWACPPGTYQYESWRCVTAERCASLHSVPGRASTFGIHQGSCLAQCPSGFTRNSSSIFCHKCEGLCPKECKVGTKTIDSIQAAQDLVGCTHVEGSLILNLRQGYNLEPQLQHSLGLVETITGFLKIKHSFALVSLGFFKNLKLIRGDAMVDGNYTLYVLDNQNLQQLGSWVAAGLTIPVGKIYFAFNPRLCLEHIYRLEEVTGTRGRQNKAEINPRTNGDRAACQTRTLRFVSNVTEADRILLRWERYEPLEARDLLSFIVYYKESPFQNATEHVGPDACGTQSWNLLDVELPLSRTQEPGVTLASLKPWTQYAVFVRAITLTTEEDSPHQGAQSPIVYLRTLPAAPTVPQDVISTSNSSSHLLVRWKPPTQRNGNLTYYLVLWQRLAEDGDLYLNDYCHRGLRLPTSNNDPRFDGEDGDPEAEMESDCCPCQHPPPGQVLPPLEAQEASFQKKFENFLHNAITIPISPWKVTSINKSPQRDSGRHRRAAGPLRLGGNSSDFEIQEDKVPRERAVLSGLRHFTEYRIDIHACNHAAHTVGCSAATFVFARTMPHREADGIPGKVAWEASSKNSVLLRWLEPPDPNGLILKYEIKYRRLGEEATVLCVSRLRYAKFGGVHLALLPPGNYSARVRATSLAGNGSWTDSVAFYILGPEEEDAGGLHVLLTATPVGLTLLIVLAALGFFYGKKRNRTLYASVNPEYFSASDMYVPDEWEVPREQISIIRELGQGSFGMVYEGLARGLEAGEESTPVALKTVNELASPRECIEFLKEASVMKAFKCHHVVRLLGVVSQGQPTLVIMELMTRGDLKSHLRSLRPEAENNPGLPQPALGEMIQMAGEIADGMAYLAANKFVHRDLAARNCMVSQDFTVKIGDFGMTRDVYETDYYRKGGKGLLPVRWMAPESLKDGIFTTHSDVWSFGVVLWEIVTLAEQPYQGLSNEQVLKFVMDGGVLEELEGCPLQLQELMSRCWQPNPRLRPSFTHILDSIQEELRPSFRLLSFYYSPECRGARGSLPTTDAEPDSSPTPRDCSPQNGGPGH

Tests used:
Test in all cases: kinase-Nluc reporter destabilization hit call (1 = scored as downregulated) (binary); higher = compound decreases kinase abundance
Conditions in all cases: K562; 2-18 h
[1] = target: ERN1 (UniProt O75460)
[2] = target: FGFR1 (UniProt P11362)
[3] = target: FGFR2 (UniProt P21802)
[4] = target: FGFR3 (UniProt P22607)
[5] = target: FGR (UniProt P09769)
[6] = target: FLT3 (UniProt P36888)
[7] = target: FYN (UniProt P06241)
[8] = target: GSK3A (UniProt P49840)
[9] = target: HER2 (UniProt P04626)
[10] = target: INSRR (UniProt P14616)

Measured: kinase-Nluc reporter destabilization hit call

CC(C)=CC[C@@H](O)C1=CC(=O)c2c(O)ccc(O)c2C1=O [Shikonin] (10 µM)
inactive: [1] 0 | [2] 0 | [3] 0 | [4] 0 | [5] 0 | [6] 0 | [7] 0 | [8] 0 | [9] 0 | [10] 0

O=C1Nc2ccc(I)cc2/C1=C/c1cc(Br)c(O)c(Br)c1 (10 µM)
inactive: [1] 0 | [2] 0 | [3] 0 | [4] 0 | [5] 0 | [6] 0 | [7] 0 | [8] 0 | [9] 0 | [10] 0

N#Cc1ccc(-c2cnc3[nH]cc(NC(=O)c4cccnc4)c3c2)cc1 (10 µM)
inactive: [1] 0 | [2] 0 | [3] 0 | [4] 0 | [5] 0 | [6] 0 | [7] 0 | [8] 0 | [9] 0 | [10] 0

N#Cc1ccc(-c2cnc3ccc(-c4ccc(C(=O)N5CCOCC5)cc4)cn23)cc1 (10 µM)
inactive: [1] 0 | [2] 0 | [3] 0 | [4] 0 | [5] 0 | [6] 0 | [7] 0 | [8] 0 | [9] 0 | [10] 0

CC(C)(C)Cc1[nH]nc2c1[C@@](C)(c1ccccc1)C1=C(CC(C)(C)CC1=O)N2 (10 µM)
inactive: [1] 0 | [2] 0 | [3] 0 | [4] 0 | [5] 0 | [6] 0 | [7] 0 | [8] 0 | [9] 0 | [10] 0

Cc1ccc(C)c(OCCn2cc(C(=O)O)c3ccccc32)c1 (10 µM)
inactive: [1] 0 | [2] 0 | [3] 0 | [4] 0 | [5] 0 | [6] 0 | [7] 0 | [8] 0 | [9] 0 | [10] 0

CCCCCC(=O)N[C@@H](Cc1ccc(O)cc1)C(=O)OC (10 µM)
inactive: [1] 0 | [2] 0 | [3] 0 | [4] 0 | [5] 0 | [6] 0 | [7] 0 | [8] 0 | [9] 0 | [10] 0

CC(C)Oc1ccc(F)c(-c2cnc(N)c(C(=O)Nc3cnccc3N3CCC[C@@H](C(=O)O)C3)n2)c1 (2 µM)
inactive: [1] 0 | [2] 0 | [3] 0 | [4] 0 | [5] 0 | [6] 0 | [7] 0 | [8] 0 | [9] 0 | [10] 0

Cn1c2cc([S+](C)[O-])sc2c2cnn(Cc3cccc(N)c3)c(=O)c21 (stereo not given) (2.5 µM)
inactive: [1] 0 | [2] 0 | [3] 0 | [4] 0 | [5] 0 | [6] 0 | [7] 0 | [8] 0 | [9] 0 | [10] 0

COc1ccc(S(=O)(=O)Nc2cc(-c3c(O)ccc4ccccc34)c(O)c3ccccc23)cc1 (10 µM)
inactive: [1] 0 | [2] 0 | [3] 0 | [4] 0 | [5] 0 | [6] 0 | [7] 0 | [8] 0 | [9] 0 | [10] 0

O=c1cc(-c2ccccc2)oc2cc(O[C@@H]3O[C@H](CO[C@@H]4O[C@H](CO)[C@@H](O)[C@H](O)[C@H]4O)[C@@H](O)[C@H](O)[C@H]3O)c(O)c(O)c12 [Oroxin B] (10 µM)
inactive: [1] 0 | [2] 0 | [3] 0 | [4] 0 | [5] 0 | [6] 0 | [7] 0 | [8] 0 | [9] 0 | [10] 0

C=CC(=O)N1CC[C@@H](Oc2nc(Nc3ccc(N4CCC(N5CCN(C)CC5)CC4)cc3)c(C(N)=O)nc2CC)C1 [Naquotinib (mesylate)] (2.5 µM)
inactive: [1] 0 | [2] 0 | [3] 0 | [4] 0 | [5] 0 | [6] 0 | [7] 0 | [8] 0 | [9] 0 | [10] 0

Cc1c(C)c(NCC(=O)N(C)C2CCN(Cc3ccc(C(N)=O)cc3)CC2)c(C)c(C)c1N (10 µM)
inactive: [1] 0 | [2] 0 | [3] 0 | [4] 0 | [5] 0 | [6] 0 | [7] 0 | [8] 0 | [9] 0 | [10] 0

CN1CCN(c2ccc(Nc3ncc4cc(C#N)c(=O)n(C5CCCC5)c4n3)cc2)CC1 (10 µM)
inactive: [1] 0 | [2] 0 | [3] 0 | [4] 0 | [5] 0 | [6] 0 | [7] 0 | [8] 0 | [9] 0 | [10] 0

N[C@@H]1CCCN(c2c(/C=C3\SC(=O)NC3=O)cccc2-c2ccccc2)C1 (10 µM)
inactive: [1] 0 | [2] 0 | [3] 0 | [4] 0 | [5] 0 | [6] 0 | [7] 0 | [8] 0 | [9] 0 | [10] 0

COc1ccc2c(Oc3ccc4c(C(=O)Nc5ccccc5N)cccc4c3)ccnc2c1 [Chiauranib] (10 µM)
inactive: [1] 0 | [2] 0 | [3] 0 | [4] 0 | [5] 0 | [6] 0 | [7] 0 | [8] 0 | [9] 0 | [10] 0

Cc1cc(Nc2cc(N)ncn2)c(=O)n2c1C(=O)NC21CCCCC1 [Tomivosertib] (10 µM)
inactive: [1] 0 | [2] 0 | [3] 0 | [4] 0 | [5] 0 | [6] 0 | [7] 0 | [8] 0 | [9] 0 | [10] 0

O=C1Nc2ccc(CN3C(=O)CSC3=O)cc2/C1=C/c1cc(CN2CCOCC2)c[nH]1 (10 µM)
inactive: [1] 0 | [2] 0 | [3] 0 | [4] 0 | [5] 0 | [6] 0 | [7] 0 | [8] 0 | [9] 0 | [10] 0

Cc1ccc(NC(=O)Nc2cc(C(F)(F)F)ccc2F)cc1Nc1ccc2c(c1)NC(=O)/C2=C\c1ccc[nH]1 (2.5 µM)
inactive: [1] 0 | [2] 0 | [3] 0 | [4] 0 | [5] 0 | [6] 0 | [7] 0 | [8] 0 | [9] 0 | [10] 0

O=C1CC[C@H](NC(=O)Cc2ccccc2)C(=O)N1 [Antineoplaston A10] (10 µM)
inactive: [1] 0 | [2] 0 | [3] 0 | [4] 0 | [5] 0 | [6] 0 | [7] 0 | [8] 0 | [9] 0 | [10] 0

c1ccc(Cn2c(-c3ccc(OC[C@H](C4CCNCC4)n4c(-c5ccccc5)nc5ccccc54)cc3)nc3ccccc32)cc1 [Deltarasin] (2.5 µM)
inactive: [1] 0 | [2] 0 | [3] 0 | [4] 0 | [5] 0 | [6] 0 | [7] 0 | [8] 0 | [9] 0 | [10] 0

CCN(CC)CCCC(C)Nc1nc(C)cc(Nc2ccc3nc(C)cc(N)c3c2)n1 (stereo not given) (10 µM)
inactive: [1] 0 | [2] 0 | [3] 0 | [4] 0 | [5] 0 | [6] 0 | [7] 0 | [8] 0 | [9] 0 | [10] 0

O=C(O)c1cc(N(Cc2ccccc2O)Cc2cc(O)ccc2O)ccc1O [Lavendustin A] (10 µM)
inactive: [1] 0 | [2] 0 | [3] 0 | [4] 0 | [5] 0 | [6] 0 | [7] 0 | [8] 0 | [9] 0 | [10] 0

COC(=O)Nc1ccc(-c2nc(N3CCOCC3)c3cnn(C4CCN(C(=O)OC)CC4)c3n2)cc1 (10 µM)
inactive: [1] 0 | [2] 0 | [3] 0 | [4] 0 | [5] 0 | [6] 0 | [7] 0 | [8] 0 | [9] 0 | [10] 0

Compounds listed so far that contain fluorine, in the order listed:
CC(C)Oc1ccc(F)c(-c2cnc(N)c(C(=O)Nc3cnccc3N3CCC[C@@H](C(=O)O)C3)n2)c1 (2 µM)
inactive: [1] 0 | [2] 0 | [3] 0 | [4] 0 | [5] 0 | [6] 0 | [7] 0 | [8] 0 | [9] 0 | [10] 0

Cc1ccc(NC(=O)Nc2cc(C(F)(F)F)ccc2F)cc1Nc1ccc2c(c1)NC(=O)/C2=C\c1ccc[nH]1 (2.5 µM)
inactive: [1] 0 | [2] 0 | [3] 0 | [4] 0 | [5] 0 | [6] 0 | [7] 0 | [8] 0 | [9] 0 | [10] 0

Further structures follow.

COC(=O)/C=C/c1ccccc1 [Methyl cinnamate] (10 µM)
inactive: [1] 0 | [2] 0 | [3] 0 | [4] 0 | [5] 0 | [6] 0 | [7] 0 | [8] 0 | [9] 0 | [10] 0

C#Cc1cccc(Nc2ncnc3cc(OC)c(NC(=O)N4C[C@H]5CCN(C)[C@H]5C4)cc23)c1 [Theliatinib] (10 µM)
inactive: [1] 0 | [2] 0 | [3] 0 | [4] 0 | [5] 0 | [6] 0 | [7] 0 | [8] 0 | [9] 0 | [10] 0

Cc1ccc(-n2nc(C(C)(C)C)cc2NC(=O)Nc2ccc(OCCN3CCOCC3)cc2)cc1 (10 µM)
inactive: [1] 0 | [2] 0 | [3] 0 | [4] 0 | [5] 0 | [6] 0 | [7] 0 | [8] 0 | [9] 0 | [10] 0

COc1cc2nccc(Oc3ccc(NC(=O)c4cn(C(C)C)c(=O)n(-c5ccc(F)cc5)c4=O)cc3F)c2cc1OC (0.5 µM)
inactive: [1] 0 | [2] 0 | [3] 0 | [4] 0 | [5] 0 | [6] 0 | [7] 0 | [8] 0 | [9] 0 | [10] 0

Cc1cc(C(=O)Nc2nc3cccc(Cl)c3n2[C@@H]2CCCCN(C(=O)/C=C/CN(C)C)C2)ccn1 [Nazartinib] (10 µM)
inactive: [1] 0 | [2] 0 | [3] 0 | [4] 0 | [5] 0 | [6] 0 | [7] 0 | [8] 0 | [9] 0 | [10] 0

C=CC(=O)Nc1cc(Nc2nccc(-c3cn(C)c4ccccc34)n2)c(OC)cc1OCCN(C)C [Rezivertinib] (2.5 µM)
inactive: [1] 0 | [2] 0 | [3] 0 | [4] 0 | [5] 0 | [6] 0 | [7] 0 | [8] 0 | [9] 0 | [10] 0

Nc1nc(NCCNc2ncc(-n3ccnc3)c(-c3ccc(Cl)cc3Cl)n2)ccc1[N+](=O)[O-] (2.5 µM)
inactive: [1] 0 | [2] 0 | [3] 0 | [4] 0 | [5] 0 | [6] 0 | [7] 0 | [8] 0 | [9] 0 | [10] 0

Clc1ccc(C(c2ccc(Cl)cc2)[n+]2ccn(CC(OCc3ccc(Cl)cc3Cl)c3ccc(Cl)cc3Cl)c2)cc1 (stereo not given) [Calmidazolium chloride] (2.5 µM)
inactive: [1] 0 | [2] 0 | [3] 0 | [4] 0 | [5] 0 | [6] 0 | [7] 0 | [8] 0 | [9] 0 | [10] 0

Cc1cc(O)c2c(c1)C(=O)c1cccc(O)c1C2=O [Chrysophanol] (2 µM)
inactive: [1] 0 | [2] 0 | [3] 0 | [4] 0 | [5] 0 | [6] 0 | [7] 0 | [8] 0 | [9] 0 | [10] 0
